Reference: PubChem BioAssay AID2551 (National Center for Advancing Translational Sciences (NCATS), 2010)
Hit rate of the full screen: of about 310,000 compounds, about 17,000 (5.5%) were called active. The inconclusive results got no clear call from the source; some entries with a clear call stand among them for comparison. Calls follow the shape of the dose curve; as a rule, active = well fitted inhibition curve with a large enough effect; inconclusive = small, poorly fitted or top-dose-only effect, or effect the other way; inactive = no such curve, though single readings can be large or run the other way. Potencies of inconclusive entries are doubtful fits and often do not repeat.

Chains of the proteins cited; added tags and fusions are not shown. Lines headed by an entry give the natural chain unless they say otherwise; changes in a name come on top.
UniProt P51450: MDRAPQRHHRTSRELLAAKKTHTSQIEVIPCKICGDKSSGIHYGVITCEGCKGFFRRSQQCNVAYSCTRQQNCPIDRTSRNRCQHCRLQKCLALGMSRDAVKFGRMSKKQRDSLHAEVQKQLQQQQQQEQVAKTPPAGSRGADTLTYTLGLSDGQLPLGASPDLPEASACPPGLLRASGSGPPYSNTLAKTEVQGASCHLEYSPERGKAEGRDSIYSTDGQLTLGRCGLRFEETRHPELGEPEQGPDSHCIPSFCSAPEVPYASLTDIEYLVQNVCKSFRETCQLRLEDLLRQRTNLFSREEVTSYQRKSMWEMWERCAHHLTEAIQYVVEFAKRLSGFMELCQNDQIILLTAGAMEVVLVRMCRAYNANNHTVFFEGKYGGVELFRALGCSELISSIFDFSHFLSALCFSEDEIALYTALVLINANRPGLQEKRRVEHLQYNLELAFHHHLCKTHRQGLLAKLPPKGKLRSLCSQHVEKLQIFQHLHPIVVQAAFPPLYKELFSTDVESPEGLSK

biological target: Nuclear receptor ROR-gamma (Mus musculus) (UniProt P51450); assay: qHTS for inhibitors of ROR gamma transcriptional activity; details: Drosophila S2 Gal4-RORgamma UAS-luciferase reporter, 20 h; activity change, negative = inhibition: at 53.6 µM (top of the series); also: nearly all actives have a fitted effect of over 60% in size
Procedure, shortened: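 Drosophila S2 cells stably expressing Gal4-DBD/mouse RORγ fusion under metallothionein promoter plus UAS-luciferase; compound 1 h, then 700 uM CuSO4 induction for 20 h at ambient temperature; inhibition read as reduced luminescence.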
% is scaled to controls: 0 for no effect and ±100 for the full control effect; potency is read from the fitted curve at half-maximal effect.

Question: `O=C(O)CN1C(=O)C(=O)N(Cc2ccc(Cl)cc2Cl)C1=O` was tested. Which Potency did it give?
Answer: Its Potency is “inactive”.

Question: Which Potency does the source give for `O=C(NCCc1ccc2c(c1)OCCO2)c1cc(F)cc(F)c1` here?
Answer: The Potency was inconclusive: 12.6 µM [activator, partial curve].

Question: How did the Potency turn out when `CN1CCN(c2ccc(NC(=S)NC(=O)c3cccc4ccccc34)cc2)CC1` was run?
Answer: The Potency was inconclusive: 14.1 µM [inhibitor, single point].

Question: How did the Potency turn out when `Cc1ccc(NC(=O)c2cccc(OCc3c(C)noc3C)c2)cc1` was run?
Answer: The Potency was inconclusive: 2.24 µM [activator, full curve, poor fit].

Question: Which Potency does the source give for `CC(=O)Nc1nc2ccccc2n1Cc1ccc(C)cc1` here?
Answer: Its Potency is active: 1.26 µM.

Question: `Cc1cc2c(cc(C(=O)OC(C(=O)NCC3CCCO3)C(C)C)n2C)o1` (centres undefined) was tested. Which Potency did it give?
Answer: The Potency was inconclusive: 1.78 µM [activator, partial curve].

Question: With `Cc1cc(NC(=O)CCC(=O)N(Cc2ccco2)C(C(=O)NC2CCCC2)c2ccccc2C)no1` (centres undefined) as the compound, how does the Potency read?
Answer: The Potency was inconclusive: 5.62 µM [activator, partial curve].

Question: For `Cc1ccc(C(O)(C(=O)NNc2ccccn2)c2ccc(C)cc2)cc1`, which Potency is on record?
Answer: Its Potency is active: 10 µM.

Question: How did the Potency turn out when `O=c1[nH]ncc2ccccc12` was run?
Answer: Its Potency is inconclusive: 20 µM [inhibitor, single point].

Question: With `Cc1onc(-c2ccccc2Cl)c1C(=O)N1CCC(C)CC1` as the compound, how does the Potency read?
Answer: The Potency was “inactive”.

Question: With `Cn1nccc1C(=O)Nc1sc2c(c1C#N)CCCC2` as the compound, how does the Potency read?
Answer: Its Potency is inconclusive: 7.08 µM [activator, partial curve, poor fit].

Question: How did the Potency turn out when `O=C(Nc1ccccc1)C1=C[C@@H](c2ccc(Br)cc2)C[C@@H](OCCCCO)O1` was run?
Answer: Its Potency is inconclusive: 35.5 µM [inhibitor, single point].

Question: How did the Potency turn out when `CC(C)c1ccccc1-n1c(-c2cccnc2)n[nH]c1=S` was run?
Answer: The Potency was inconclusive: 11.2 µM [inhibitor, partial curve].

Question: `CCCc1cc2c(=O)c(-c3cscn3)c(C(=O)OCC)oc2cc1O` was tested. Which Potency did it give?
Answer: The Potency was inconclusive: 35.5 µM [activator, single point].

Question: `CC[C@H](C)[C@H](N)C1=N[C@H](C(=O)N[C@@H](CC(C)C)C(=O)N[C@@H](CCC(=O)O)C(=O)N[C@@H](C(=O)N[C@H]2CCCCNC(=O)[C@@H](CC(N)=O)NC(=O)[C@@H](CC(=O)O)NC(=O)[C@@H](Cc3cnc[nH]3)NC(=O)[C@@H](Cc3ccccc3)NC(=O)[C@@H]([C@@H](C)CC)NC(=O)[C@@H](CCCN)NC2=O)[C@@H](C)CC)CS1` was tested. Which activity change, negative = inhibition did it give?
Answer: Its activity change, negative = inhibition is inactive: 13.9% [at 2.98 µM].

Question: Which Potency does the source give for `COc1ccc(NC(=O)C2OC3OC(C)(C)OC3C3OC(C)(C)OC23)cc1` (centres undefined) here?
Answer: The Potency was inconclusive: 3.55 µM [activator, single point].

Question: How did the Potency turn out when `Cc1cc(C(=O)CN2C(=O)c3ccccc3S2(=O)=O)c(C)n1-c1ccccc1` was run?
Answer: Its Potency is active: 11.2 µM.

Question: With `NS(=O)(=O)c1cccc(NC(=O)Nc2ccc(Cl)cc2)c1` as the compound, how does the Potency read?
Answer: Its Potency is “inactive”.

Question: `Cc1ccc(C(=O)NC2CCN(CC(=O)Nc3ccccc3Cl)CC2)cc1` was tested. Which Potency did it give?
Answer: The Potency was inconclusive: 12.6 µM [activator, single point].

Question: For `CCCCC(=O)NC(=S)NNC(=O)CC#N`, which Potency is on record?
Answer: Its Potency is inconclusive: 35.5 µM [inhibitor, single point].

Question: Which Potency does the source give for `CCOC(=O)C1CCN(c2ncnc3c2cnn3-c2ccc(OC)cc2)CC1` here?
Answer: The Potency was inconclusive: 0.501 µM [inhibitor, full curve, poor fit].

Question: How did the Potency turn out when `CC(C)C1Cc2c(C#N)c(N)n(C)c(=S)c2CO1` (centres undefined) was run?
Answer: The Potency was “inactive”.

Question: For `CCN(C(=O)Cc1c(C(=O)O)n(CC)c2ccccc12)c1ccccc1C`, which Potency is on record?
Answer: Its Potency is “inactive”.

Question: Which Potency does the source give for `CCOc1ccc(/C=C/C(O)=C2/C(=O)N(C)C3(C)CC2c2ccccc2O3)cc1OC` (centres undefined) here?
Answer: Its Potency is inconclusive: 1.26 µM [activator, partial curve].

Question: Which Potency does the source give for `Cc1cc(OC(C)C(=O)NCCCN2CCCC2=O)c2c(C)c(C)c(=O)oc2c1` (centres undefined) here?
Answer: Its Potency is “inactive”.

Question: `Cc1cc(NC(=S)Nc2cccnc2)ccc1Br` was tested. Which Potency did it give?
Answer: Its Potency is active: 12.6 µM.

Question: `CC(=O)Nc1ccc2nc(NS(=O)(=O)c3ccc(C)cc3)sc2c1` was tested. Which Potency did it give?
Answer: Its Potency is “inactive”.

Question: Which activity change, negative = inhibition does the source give for `Cc1nc2c3cc(F)ccc3n(Cc3ccc(F)cc3)c2s1` here?
Answer: Its activity change, negative = inhibition is inactive: -5.2% [at 10 µM].

Question: `CCOC(=O)C1=C(C)N[C@@]2(O)c3ccccc3C(=O)[C@@]12O` was tested. Which Potency did it give?
Answer: Its Potency is “inactive”.

Question: `Cc1ccc(S(=O)(=O)Cc2cc(-c3ccc(Cl)cc3)no2)cc1` was tested. Which Potency did it give?
Answer: The Potency was inconclusive: 5.01 µM [activator, partial curve].

Question: With `COc1cc(C(=O)NCc2ccc(C)cc2)ccc1OC(F)F` as the compound, how does the Potency read?
Answer: Its Potency is inconclusive: 25.1 µM [activator, single point].

Question: How did the Potency turn out when `COc1ccc(NC(=O)/C(C#N)=C/c2ccc(-c3ccc(Cl)c(C(=O)O)c3)o2)cc1` was run?
Answer: Its Potency is active: 11.2 µM.

Question: For `COC(=O)[C@@]1(Cc2ccccc2-c2ccco2)C=C[C@H](C)[C@@H](c2ccccc2)N1C(=O)C(F)(F)F`, which Potency is on record?
Answer: The Potency was inconclusive: 35.5 µM [inhibitor, single point].

Question: For `N#Cc1ccc2c(c1)C[C@]1(c3ccsc3)Oc3c(c(=O)oc4ccccc34)C2O1`, which Potency is on record?
Answer: Its Potency is inconclusive: 3.16 µM [activator, partial curve, poor fit].

Question: With `COc1ccc(-n2c(-c3ccccc3)nc(=S)c3c2CCCC3)cc1` as the compound, how does the Potency read?
Answer: The Potency was active: 14.1 µM.

Question: `S=C1NC2(CCCCC2)Cc2ccccc21` was tested. Which Potency did it give?
Answer: Its Potency is active: 1.12 µM.

Question: `CCCNC(=O)c1ccccc1NC(=O)c1ccccc1SC` was tested. Which Potency did it give?
Answer: Its Potency is inconclusive: 17.8 µM [activator, single point].

Question: With `CC(=O)NC(NC(=S)Nc1ccc(N=Nc2ccccc2)cc1)C(Cl)(Cl)Cl` (centres undefined) as the compound, how does the Potency read?
Answer: Its Potency is active: 7.08 µM.

Question: For `CC(=O)c1cccc(NC(=S)N2CCC(Cc3ccccc3)CC2)c1`, which Potency is on record?
Answer: The Potency was active: 14.1 µM.

Question: With `CC(CCc1ccccc1)NC(=O)CCCCCNc1nc(=S)[nH]c2ccccc12` (centres undefined) as the compound, how does the Potency read?
Answer: Its Potency is inconclusive: 35.5 µM [inhibitor, single point].

Question: Which Potency does the source give for `CC(=O)Nc1ccc(Nc2c3ccccc3nc3ccccc23)cc1` here?
Answer: The Potency was inconclusive: 22.4 µM [inhibitor, single point].

Question: For `CCOc1cc(NC(=S)NCCCOC)c(OCC)cc1NC(=O)c1cccs1`, which Potency is on record?
Answer: Its Potency is active: 14.1 µM.

Question: With `C/C(=N\Nc1nc2ccccc2[nH]1)c1ccc(Cl)s1` as the compound, how does the Potency read?
Answer: The Potency was active: 2.24 µM.

Question: With `C=CCOC(=O)C1=C[C@H](c2ccc(Br)cc2)[C@@H](CCCO)[C@H](OCC)O1` as the compound, how does the Potency read?
Answer: Its Potency is inconclusive: 14.1 µM [activator, single point].
